Experimental data as given in patent US8697742B2, “BCRP/ABCG2 inhibitor” (Kabushiki Kaisha Yakult Honsha, priority 2005, dated 2014).
Where a name gives a salt, the structure may show the parent alone. At least one compound was matched to its structure with a doubt left.

Tests used:
[1] = tested on: P388 cells; experiment: Sensitivity of parental P388 cells to SN-38; format: cell-based, mouse; conditions: with SN-38, 48 hours, FIG. 1
Method: (§1) Mouse leukemia P388 cells or human BCRP gene-transduced P388 cells (P388/BCRP cells) (see JP-A-2003-063989) were suspended in 10% FBS/RPMI1640 containing 2-mercaptethanol (50 μM), and the resultant suspension was added to a 96-well microplate (1×10^4 cells/50 μL/well). Thereafter, a solution of each of Compounds 1, 14, 21, 31, 39, and 41 of the present invention and SN-38 in 100 FBS/RPNI1640 (25 μL) was added to each of the wells, followed by culturing at 5% CO2 and 37° C. for 48 hours. After completion of culturing, the number of viable cells was counted by use of TetraColor ONE according to the manufacture's instruction manual.

[2] = tested on: P388/BCRP cells; experiment: Effect of overcoming SN-38 resistance of human BCRP gene-transduced P388 cells; format: cell-based, mouse; conditions: with SN-38, 48 hours, FIG. 1
Method: as §1

[3] = tested on: K562/BCRP cells; experiment: Intracellular accumulation of SN-38 in BCRP-expressing cells; format: cell-based, human; conditions: compound 500 ng/mL, 37° C. for 30 minutes, FIG. 2
Method: (§2) K562 cells or human BCRP gene-transduced K562 cells (K562/BCRP cells) (see JP-A-2003-063989) were suspended in 10% FBS/RPMI1640 (1 mL) (5×10^6 cells/mL), and SN-38 and each of Compounds 1, 39, and 46 of the present invention (final concentration: 500 ng/mL) were added to the resultant suspension, followed by incubation at 37° C. for 30 minutes. Thereafter, centrifugation was performed (2° C., 1,400×g, 1 min), and the resultant supernatant was removed. Ice-cooled PBS containing 1% BSA was added to the thus-pelletized cells, and the cells were resuspended, followed by centrifugation (2° C., 1,400×g, 1 min) for washing the cells. This washing procedure was performed again, followed by addition of PBS (250 μL) and sonication of the cells. To the resultant cell sonicate, methanol (250 μL) and 10% zinc sulfate solution (10 μL) were added, and the resultant mixture was stirred, followed by centrifugation (2° C., 12, 500×g, 5 min) and collection of the supernatant. The thus-collected supernatant was dispensed in a white 96-well microplate for fluorescence intensity measurement (200 μL/well), and then the amount of SN-38 contained in the supernatant was measured by use of a microplate fluorometer [SPECTRA max GEMINI XS (trademark), product of Molecular Devices] […]

[4] = tested on: K562 cells; experiment: Intracellular accumulation of SN-38 in parental K562 cells; format: cell-based, human; conditions: compound 500 ng/mL, 37° C. for 30 minutes, FIG. 2
Method: as §2

SMILES | Effect on sensitivity of the P388 cells to SN-38 [1] | Effect of overcoming the SN-38 resistance of the P388/BCRP cells [2] | Amount of accumulation of SN-38 in the K562/BCRP cells [3] | Amount of accumulation of SN-38 in the K562 cells (parental cells) [4]
COc1ccc(/C(C#N)=C/c2ccncc2)cc1OC [Compound 31, (Z)-2-(3,4-dimethoxy-phenyl)-3-pyridin-4-yl-acrylonitrile hydrochloride] | did not affect the sensitivity | potent effect of overcoming the SN-38 resistance |  | 
COc1ccc(/C=C(\C#N)c2cccnc2)cc1OC [Compound 46, (Z)-3-(3,4-dimethoxy-phenyl)-2-pyridin-3-yl-acrylonitrile hydrochloride] |  |  | increased the amount of accumulation of SN-38 | virtually unaffected
